Measurements as given in publication PMC7242711, “An integrated approach to unravel a crucial structural property required for the function of the insect steroidogenic Halloween protein Noppera-bo” (The Journal of Biological Chemistry, 2020).
No constants are given. Whether binding was seen depends on the method and setting. Some entries that bind do so weakly or less than the wild type.

Target: Drosophila melanogaster Noppera-bo (DmNobo), wild type (D. melanogaster) (UniProt Q7JYX0)
Assay: crystal structure; DmNobo crystallised at 20 °C; DmNobo I crystals from 27.5% (w/v) PEG 3350, 100 mM MES-NaOH pH 5.4; DmNobo II crystals from 42.5% (v/v) PPG400, 100 mM Bis-Tris pH 6.4; apo form and soaks with EST and/or GSH; molecular replacement; both purified

B1: Drosophila melanogaster Noppera-bo (DmNobo), wild type (enzyme, UniProt Q7JYX0 1-232)
chain: MNHKVMSQPKPILYYDERSPPVRSCLMLIKLLDIDVELRFVNLFKGEQFQKDFLALNPQHSVPTLVHGDLVLTDSHAILIHLAEKFDEGGSLWPQEHAERMKVLNLLLFECSFLFRRDSDFMSATVRQGFANVDVAHHERKLTEAYIIMERYLENSDFMAGPQLTLADLSIVTTLSTVNLMFPLSQFPRLRRWFTAMQQLDAYEANCSGLEKLRQTMESVGSFQFPSSSAVVTEKVE
  binding: binds
